# Primary screen of a compound library

Data taken from ChEMBL document CHEMBL3988442, “University of Dundee, Small-Polar-MMV Screening Library” (2021).

Mtb cholesterol medium: 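Phenotypic screen: M. tuberculosis growth, cholesterol and DPPC medium, 4 days; the read-out is not stated. Concentration: 50 µM. Higher reads as more growth inhibition (inferred: compounds with an IC50 in retests scored well above the rest). About 69,000 compounds were tested under these conditions; 0.54% (about 370) showed 50% or more at least once.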
Mtb glucose medium: 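Phenotypic screen: M. tuberculosis growth, glucose 7H9 medium, 3 days; the read-out is not stated. Concentration: 50 µM. The record gives no direction; compounds that gave an IC50 in retests scored well above the rest, so higher reads as more growth inhibition. About 69,000 compounds were tested under these conditions; 1.1% (about 760) showed 50% or more at least once.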

The filed quantity is “Percent Effect” (%). The controls that fix the scale are not given in the record; negative values are as filed. The compounds are a random part of those screened. Two or more numbers in one place are separate tests of the same structure; such repeats can differ widely.

compound,Mtb cholesterol medium,Mtb glucose medium
COc1nccnc1N1CCN(Cc2ccc3c(c2)OCO3)C(=O)C1,0.914%,8.786% & 4.052%
CNC(=O)CN1CCC(CN(C)Cc2ccncc2Cl)CC1,-8.053%,2.471%
O=C(O)C(F)(F)F.O=S(=O)(NCC1OCCc2cn(CC3CCOCC3)nc21)C1CC1 (stereo not drawn),-0.2992%,22.12%
CC1CCCCN1CCNC(=O)c1ccccc1N1CCOCC1 (stereo not drawn),-43.22% & -14.76%,-58.59%
COc1ncccc1NC(=O)C1CCS(=O)(=O)C1 (stereo not drawn),-2.725%,-17.77%
Cc1nc2c(C(=O)O)cccc2n1-c1ccc(C(=O)N2CCCC2)o1,-6.523%,-21.85%
Cc1cnn(CC2CN(Cc3nc(C4CC4)no3)CCO2)c1 (stereo not drawn),12.1%,20.94%
COCCOCCC(=O)Nc1c(-c2ccc(F)cc2)ncn1C,-0.5529%,-5.612% & -0.666%
CC(=O)c1c(F)cccc1NCC(O)C1CC1 (stereo not drawn),-11.87%,-22.89%
CC(C)(C)CN1CCCC2(CCN(C(=O)c3ccc(O)nc3)C2)C1 (stereo not drawn),-0.947%,-10.92%
COc1c(C)cnc(CSc2nnc(C)s2)c1C,24.89%,32.09%
Cc1nc2cc(C3CCN(C(=O)c4ccccn4)CC3)nn2c(O)c1C,-11.18% & -45.62%,-64.86%
[H][C@@]12CN(Cc3ccccc3SC)C[C@]1(C(=O)O)CN(CC1CC1)C2=O,-8.583%,-0.9979%
O=C(O)C(F)(F)F.[H][C@@]12CCN(C(=O)c3cnn(C)c3)[C@@]1([H])CCN2Cc1ccc(OC)cc1,-29.66%,-9.048%
COc1ccccc1CC(=O)N1CCC(OCc2cccnc2)CC1,-8.631%,3.96%
CCC(=O)CNC(=O)CCn1nc2ccccn2c1=O,-4.246%,-18.23%
Cc1ccc2c(n1)N(CCN(C)C)CCN(Cc1c(C)noc1C)C2.O=C(O)C(F)(F)F.O=C(O)C(F)(F)F.O=C(O)C(F)(F)F,14.18%,4.348% & 6.328%
O=C(CSC1CCCC1)N1CCN(c2ccc(-n3cncn3)nn2)CC1,1.873%,14.91% & -1.022%
Cc1cccc2nc(CNC(=O)N3CCC(N4CC=CC4)C3)cn12 (stereo not drawn),-5.877%,16.75%
COc1cc(C2CC(=O)Nc3c2nc2n3CCCC2)ccc1O (stereo not drawn),-37.89%,13.34%
CN(C)C(=O)c1c[nH]nc1C1CCN(S(=O)(=O)c2cccc(Cl)c2)CC1,9.623%,29.05%
O=S(=O)(N1CCCC1)N(Cc1ccccc1)CC1CCCO1 (stereo not drawn),-11.55%,-9.75%
COc1ccc(CNCC(O)c2cccc(O)c2)cc1Br (stereo not drawn),4.177%,-21.86%
CN(Cc1nc(C2CC2)no1)C1CCS(=O)(=O)C1 (stereo not drawn),8.002%,2.941% & -7.71%
[H][C@@]12COC[C@]1([H])[C@@H](OCc1cccnc1)CN2C(=O)CNC(C)=O,-9.756% & -12.49%,-1.816%
CCOC(=O)C1(Cc2ccccc2-c2ccccc2OC)CCNCC1.Cl,4.319%,13.75%
CCN(CC)C(=O)c1ccc(-c2ccsc2)nc1C,-24.5%,7.306% & 0.3581%
Cc1ccc2c(c1)CN(CC(=O)NCCc1ccc(F)cc1)CC(C)O2 (stereo not drawn),15.66%,28.2% & 4.926%
Cc1cnn(CC2CN(Cc3nc(C)c(C)o3)CCO2)c1 (stereo not drawn),-8.045%,-10.16%
CCN(CC)C(=O)N1CCN(CCc2ccncc2)CC1,-4.484%,11.09% & -8.136%
CC1CN(C(=O)Nc2cccc(CN3CCOC3=O)c2)CCO1 (stereo not drawn),6.476%,9.792%
[H][C@@]12CCCO[C@]1([H])[C@@H](OCc1cccnc1)CN2c1cc(OC)ncn1,4.592%,21.46%
CCC(C)(CC(=O)OC)NC(=O)c1cccc(F)c1F (stereo not drawn),-3.382%,-12.01% & 6.751%
O=C(O)C(F)(F)F.[H][C@@]12CCN(Cc3nccs3)C[C@]1([H])O[C@H](C(=O)N(C)C)C2,-5.812%,15.34%
Cc1ccc(O)c(C(=O)NCCS(=O)(=O)Cc2ccccc2)c1,-8.301%,9.691%
Cc1cccc(-c2nc(CN3CCc4cnc(C)nc4C3)no2)c1,4.659%,9.646%
CC(=O)NCC(=O)N1CCOC2(CCCN(c3cccnc3)C2)C1.O=C(O)C(F)(F)F (stereo not drawn),-21.1% & -6.937%,-41.23%
O=C(CN1CCCCCC1)NCc1ccc2[nH]c(=O)[nH]c2c1,1.587%,-0.7239% & -37.05%
Cc1c(C(C)NCc2cnn(C)c2)cnn1-c1ccccc1 (stereo not drawn),17.03%,-1.461% & 19.81%
COc1ccc(N(c2ccccc2)c2ccc(C(=O)O)s2)cc1,-8.982%,-38.96%
CN(Cc1ccsc1)C(=O)c1cc2c([nH]c1=O)CCCC2=O,-5.989%,-20.14%
Cc1ccc(CN(C)C(=O)c2cc3c(c(S(N)(=O)=O)c2)CCC3)o1,1.527%,3.121%
[H][C@]12CCN(C(=O)CN(C)C)C[C@@]1([H])OCCN(Cc1csc(C)n1)C2,-10.29%,-13.96%
CCN1CCN(C2CCN(Cc3noc(C4CC4)n3)CC2)C1=O,-22.18%,0.7228%
COCCNc1nc2c(c(NCc3cnc(C)c(C)c3)n1)CCNCC2,5.59% & 13.45%,6.474%
O=C1C(CS(=O)(=O)Nc2ccccc2)=NC(=O)n2cccc21,4.736%,8.56%
COc1ccccc1-c1ccccc1CC1(C(=O)O)CCNCC1,9.605%,15.66%
[H][C@@]12CS(=O)(=O)C[C@]1([H])N(C(=O)COc1ccccc1)CCN2CC=C(C)C,7.374%,3.046%
O=C(NCCc1ccsc1)Nc1cccnc1N1CCCC1,-3.487%,8.873%
COc1ccc(-n2c(CCC(=O)O)nc3ccccc32)cc1CO,9.058%,5.21%
O=C(c1cncc(N2CCCC3(CCNCC3)CC2)n1)N1CCCCC1,-14.23% & -2.767%,-26.92%
CCCn1cc(C(=O)n2nc(C)cc2C)c(S(=O)(=O)N2CCSCC2)n1,18.7%,41.56%
O=C(CCn1c(C(F)F)cc2cccnc21)NC1CCCC1,18.11%,21.64%
O=C(c1ccc[nH]1)N1CCCC(c2cc(C(F)(F)F)[nH]n2)C1 (stereo not drawn),-5.511%,9.433%
O=C(N1CCC(Oc2ccncc2)CC1)C1(c2ccc(F)cc2)CC1,14.95%,-9.372%
O=C(O)C(F)(F)F.[H][C@]12CCC[C@@]1(COCc1cccnc1)CN(C(=O)c1ocnc1C)C2,-11.22%,-6.394%
CC(CN1CCOCC1)NC(=O)N1CCN(S(C)(=O)=O)CC1 (stereo not drawn),-0.5382%,-10.69%
CC(=O)N1CCC(c2cc3c(ncn3C)c(-c3cnn(C)c3)n2)CC1,-7.896%,-14.5% & 0.7649%
O=C(O)C(F)(F)F.[H][C@@]12CCN(S(=O)(=O)c3ccccc3)CC[C@]1(C(=O)N(C)C)CCN2CC,18.61%,-1.987%

Repeated from the top, 4 entries:

| compound | Mtb cholesterol medium | Mtb glucose medium |
|---|---|---|
| `COc1nccnc1N1CCN(Cc2ccc3c(c2)OCO3)C(=O)C1` | 0.914% | 8.786% & 4.052% |
| `CNC(=O)CN1CCC(CN(C)Cc2ccncc2Cl)CC1` | -8.053% | 2.471% |
| `O=C(O)C(F)(F)F.O=S(=O)(NCC1OCCc2cn(CC3CCOCC3)nc21)C1CC1` (stereo not drawn) | -0.2992% | 22.12% |
| `CC1CCCCN1CCNC(=O)c1ccccc1N1CCOCC1` (stereo not drawn) | -43.22% & -14.76% | -58.59% |